Laboratory results taken from patent US9770530B2, “Tissue substitute material with biologically active coating” (LACERTA TECHNOLOGIES INC., priority 2013, dated 2017).
≈ marks a conversion by molar mass, not a printed value.

Test system: Enterococcus faecalis
Assay: MIC determination
Format: cell-based
Details: data not shown

CN[C@H](CC(C)C)C(=O)N[C@H]1C(=O)N[C@@H](CC(N)=O)C(=O)N[C@H]2C(=O)N[C@H]3C(=O)N[C@H](C(=O)N[C@H](C(=O)O)c4cc(O)cc(O)c4-c4cc3ccc4O)[C@H](O)c3ccc(c(Cl)c3)Oc3cc2cc(c3O[C@@H]2O[C@H](CO)[C@@H](O)[C@H](O)[C@H]2O[C@H]2C[C@](C)(N)[C@H](O)[C@H](C)O2)Oc2ccc(cc2Cl)[C@H]1O [vancomycin]
MIC: 0.2 µg/mL (≈ 0.138 µM)
